The list shows a part of the results. Repeats are few or missing, and single values can be far off.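 The apoptosis fraction was the count of cleaved-PARP antibody-stained nuclei relative to all DNA-stained nuclei, imaged in 1,536-well plates. Screening doses were set so most cells survived, and baseline and induced cleaved-PARP levels vary greatly across cell lines.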
What follows are compounds tested on 501Mel (assay: cleaved PARP positive nuclei fraction relative to DMSO control; melanoma cells; higher = more apoptosis). Conditions: library dose: low library concentration; 72 h.

Compound | cleaved PARP positive nuclei fraction [%]
CN(NC(=O)CC(=O)NN(C)C(=S)c1ccccc1)C(=S)c1ccccc1 + CCCCCCCCCCCC1=C(O)C(=O)C=C(O)C1=O [Embelin] (first compound 0.006 µM, partner dose 1.2 µM) | 438
COc1ccc2c(c1)CCC1C2CCC2(C)C(NCCCCCCN3C(=O)C=CC3=O)CCC12 (stereo unspecified) + O=c1cc(-c2cccc3c2Sc2ccccc2S3)oc(N2CCOCC2)c1 [KU55933] (first compound 0.4 µM, partner dose 1 µM) | 53.6
COc1ccc2c(c1)CCC1C2CCC2(C)C(NCCCCCCN3C(=O)C=CC3=O)CCC12 (stereo unspecified) + Oc1nc(-c2ccc(C(F)(F)F)cc2)nc2c1CSCC2 [XAV939] (first compound 0.4 µM, partner dose 2 µM) | 34.4
O=C(O)c1ccc(-c2c[nH]c3ncc(-c4ccccc4)cc23)cc1C1CCCC1 + COc1ccc2c(c1)CCC1C2CCC2(C)C(NCCCCCCN3C(=O)C=CC3=O)CCC12 [U73122] (first compound 0.16 µM, partner dose 0.4 µM) | 269
CCc1ccc(CCOc2ccc(CC3SC(=O)NC3=O)cc2)nc1 (stereo unspecified) [pioglitazone] + Oc1nc(-c2ccc(C(F)(F)F)cc2)nc2c1CSCC2 [XAV939] (first compound 2 µM, partner dose 2 µM) | 40.7
COc1cc2c(Oc3ccc4[nH]c(C)cc4c3F)ncnc2cc1OCCCN1CCCC1 [cediranib] + COc1cc2ncnc(Nc3ccc(Oc4ccccc4)cc3)c2cc1OC [SrcI1] (first compound 0.4 µM, partner dose 2 µM) | 90.5
N#Cc1c(O)c2c(-c3ccc(-c4ccccc4O)cc3)csc2[nH]c1=O + COc1cc2ncnc(Nc3ccc(Oc4ccccc4)cc3)c2cc1OC [SrcI1] (first compound 2 µM, partner dose 2 µM) | 189
CN(NC(=O)CC(=O)NN(C)C(=S)c1ccccc1)C(=S)c1ccccc1 + CC(C)CCN1c2nc(Nc3cc(F)c(O)c(F)c3)ncc2N(C)C(=O)C1C [BID1870] (first compound 0.006 µM, partner dose 0.2 µM) | 194
CCc1ccc(CCOc2ccc(CC3SC(=O)NC3=O)cc2)nc1 (stereo unspecified) [pioglitazone] + N#Cc1c(O)c2c(-c3ccc(-c4ccccc4O)cc3)csc2[nH]c1=O [A769662] (first compound 2 µM, partner dose 2 µM) | 74.6
Oc1nc(-c2ccc(C(F)(F)F)cc2)nc2c1CSCC2 + CCCCCCCCCCCC1=C(O)C(=O)C=C(O)C1=O [Embelin] (first compound 2 µM, partner dose 1.2 µM) | 72.4
CCN(CC)CCCCNc1ncc2cc(-c3cc(OC)cc(OC)c3)c(NC(=O)NC(C)(C)C)nc2n1 + Cn1cc(/C=C2\C(=O)Nc3cccnc32)c2ccccc21 [GW441756] (first compound 0.1 µM, partner dose 0.4 µM) | 47.4
CCc1ccc(CCOc2ccc(CC3SC(=O)NC3=O)cc2)nc1 (stereo unspecified) [pioglitazone] + Cn1cc(/C=C2\C(=O)Nc3cccnc32)c2ccccc21 [GW441756] (first compound 2 µM, partner dose 0.4 µM) | 34.2
COc1ccc(COc2ccc(Cc3cnc(N)nc3N)cc2OC)cc1 + COc1cc2ncnc(Nc3ccc(Oc4ccccc4)cc3)c2cc1OC [SrcI1] (first compound 1 µM, partner dose 2 µM) | 58.7
O=S(=O)(c1ccccc1)N(CC(F)(F)F)c1ccc(C(O)(C(F)(F)F)C(F)(F)F)cc1 + COc1cc2ncnc(Nc3ccc(Oc4ccccc4)cc3)c2cc1OC [SrcI1] (first compound 1.4 µM, partner dose 2 µM) | 108
COc1ccc2c(c1)CCC1C2CCC2(C)C(NCCCCCCN3C(=O)C=CC3=O)CCC12 (stereo unspecified) + Cn1cc(/C=C2\C(=O)Nc3cccnc32)c2ccccc21 [GW441756] (first compound 0.4 µM, partner dose 0.4 µM) | 40.5
CN(NC(=O)CC(=O)NN(C)C(=S)c1ccccc1)C(=S)c1ccccc1 + Cc1cc([N+](=O)[O-])ccc1NS(=O)(=O)c1cc(Cl)ccc1Cl [FH535] (first compound 0.006 µM, partner dose 1 µM) | 606
N#Cc1c(O)c2c(-c3ccc(-c4ccccc4O)cc3)csc2[nH]c1=O + c1cc(-c2cnn3cc(-c4ccc(OCCN5CCCCC5)cc4)cnc23)ccn1 [Dorsomorphin] (first compound 2 µM, partner dose 0.4 µM) | 86.9
CCc1ccc(CCOc2ccc(CC3SC(=O)NC3=O)cc2)nc1 (stereo unspecified) [pioglitazone] + COc1ccc(COc2ccc(Cc3cnc(N)nc3N)cc2OC)cc1 [GW2580] (first compound 2 µM, partner dose 1 µM) | 295

Copied from the entries so far (2 entries):
Compound | cleaved PARP positive nuclei fraction [%]
CN(NC(=O)CC(=O)NN(C)C(=S)c1ccccc1)C(=S)c1ccccc1 + Cc1cc([N+](=O)[O-])ccc1NS(=O)(=O)c1cc(Cl)ccc1Cl [FH535] (first compound 0.006 µM, partner dose 1 µM) | 606
N#Cc1c(O)c2c(-c3ccc(-c4ccccc4O)cc3)csc2[nH]c1=O + c1cc(-c2cnn3cc(-c4ccc(OCCN5CCCCC5)cc4)cnc23)ccn1 [Dorsomorphin] (first compound 2 µM, partner dose 0.4 µM) | 86.9

Next part:

Compound | cleaved PARP positive nuclei fraction [%]
COc1cc2c(Oc3ccc4[nH]c(C)cc4c3F)ncnc2cc1OCCCN1CCCC1 [cediranib] + CCc1ccc(CCOc2ccc(CC3SC(=O)NC3=O)cc2)nc1 [pioglitazone] (first compound 0.4 µM, partner dose 2 µM) | 82
COc1ccc(-c2ccc3c(N4CCOCC4)nc(N4C[C@@H](C)O[C@@H](C)C4)nc3n2)cc1CO + COc1cc2ncnc(Nc3ccc(Oc4ccccc4)cc3)c2cc1OC [SrcI1] (first compound 0.02 µM, partner dose 2 µM) | 63.4
O=C(O)c1ccc(-c2c[nH]c3ncc(-c4ccccc4)cc23)cc1C1CCCC1 + O=S(=O)(c1ccccc1)N(CC(F)(F)F)c1ccc(C(O)(C(F)(F)F)C(F)(F)F)cc1 [T0901317] (first compound 0.16 µM, partner dose 1.4 µM) | 86.1
COc1ccc(-c2ccc3c(N4CCOCC4)nc(N4C[C@@H](C)O[C@@H](C)C4)nc3n2)cc1CO + CCN(CC)CCCCNc1ncc2cc(-c3cc(OC)cc(OC)c3)c(NC(=O)NC(C)(C)C)nc2n1 [PD173074] (first compound 0.02 µM, partner dose 0.1 µM) | 39.4
Oc1cc(-c2nc(-c3ccccc3)[nH]c2-c2ccncc2)ccc1Cl + O=C1NC(=O)/C(=C/c2ccc(-c3ccc(F)cc3O)o2)S1 [AS252424] (first compound 0.2 µM, partner dose 1 µM) | 48.8
CCc1ccc(CCOc2ccc(CC3SC(=O)NC3=O)cc2)nc1 (stereo unspecified) [pioglitazone] + O=C(Nc1ccccc1)c1cc([N+](=O)[O-])ccc1Cl [GW9662] (first compound 2 µM, partner dose 2 µM) | 158
COc1ccc2c(c1)CCC1C2CCC2(C)C(NCCCCCCN3C(=O)C=CC3=O)CCC12 (stereo unspecified) + O=C(O)C(=O)Nc1sc2c(c1C(=O)O)CCNC2 [TCS401] (first compound 0.4 µM, partner dose 1.66667 µM) | 67.9
CN(C)S(=O)(=O)c1ccc2c(c1)/C(=C/c1cc3c([nH]1)CCCC3)C(=O)N2 + COc1cc(N2CCC(N3CCN(C)CC3)CC2)ccc1Nc1ncc(Cl)c(Nc2ccccc2S(=O)(=O)C(C)C)n1 [NVP-TAE684] (first compound 0.4 µM, partner dose 0.08 µM) | 94.8
CN(C)S(=O)(=O)c1ccc2c(c1)/C(=C/c1cc3c([nH]1)CCCC3)C(=O)N2 + N#Cc1c(O)c2c(-c3ccc(-c4ccccc4O)cc3)csc2[nH]c1=O [A769662] (first compound 0.4 µM, partner dose 2 µM) | 50.6
COc1ccc2c(c1)CCC1C2CCC2(C)C(NCCCCCCN3C(=O)C=CC3=O)CCC12 (stereo unspecified) + CC(C)CCN1c2nc(Nc3cc(F)c(O)c(F)c3)ncc2N(C)C(=O)C1C [BID1870] (first compound 0.4 µM, partner dose 0.2 µM) | 155
CCc1ccc(CCOc2ccc(CC3SC(=O)NC3=O)cc2)nc1 (stereo unspecified) [pioglitazone] + Oc1cc(-c2nc(-c3ccccc3)[nH]c2-c2ccncc2)ccc1Cl [L779450] (first compound 2 µM, partner dose 0.2 µM) | 63.4
CCc1ccc(CCOc2ccc(CC3SC(=O)NC3=O)cc2)nc1 (stereo unspecified) [pioglitazone] + CC(C)CCN1c2nc(Nc3cc(F)c(O)c(F)c3)ncc2N(C)C(=O)C1C [BID1870] (first compound 2 µM, partner dose 0.2 µM) | 67.4
CN(NC(=O)CC(=O)NN(C)C(=S)c1ccccc1)C(=S)c1ccccc1 + O=c1cc(-c2cccc3c2Sc2ccccc2S3)oc(N2CCOCC2)c1 [KU55933] (first compound 0.006 µM, partner dose 1 µM) | 389
O=C(O)c1ccc(-c2c[nH]c3ncc(-c4ccccc4)cc23)cc1C1CCCC1 + Oc1nc(-c2ccc(C(F)(F)F)cc2)nc2c1CSCC2 [XAV939] (first compound 0.16 µM, partner dose 2 µM) | 128
COc1ccc(COc2ccc(Cc3cnc(N)nc3N)cc2OC)cc1 + COc1cc(N2CCC(N3CCN(C)CC3)CC2)ccc1Nc1ncc(Cl)c(Nc2ccccc2S(=O)(=O)C(C)C)n1 [NVP-TAE684] (first compound 1 µM, partner dose 0.08 µM) | 73.4
COc1ccc2c(c1)CCC1C2CCC2(C)C(NCCCCCCN3C(=O)C=CC3=O)CCC12 (stereo unspecified) + c1cc(-c2cnn3cc(-c4ccc(OCCN5CCCCC5)cc4)cnc23)ccn1 [Dorsomorphin] (first compound 0.4 µM, partner dose 0.4 µM) | 121
NCC(=O)Nc1ccc(-n2nc(C(F)(F)F)cc2-c2ccc3c(ccc4ccccc43)c2)cc1 + COc1ccc(COc2ccc(Cc3cnc(N)nc3N)cc2OC)cc1 [GW2580] (first compound 1 µM, partner dose 1 µM) | 141
COc1cc2ncnc(Nc3ccc(Oc4ccccc4)cc3)c2cc1OC + COc1cc(N2CCC(N3CCN(C)CC3)CC2)ccc1Nc1ncc(Cl)c(Nc2ccccc2S(=O)(=O)C(C)C)n1 [NVP-TAE684] (first compound 2 µM, partner dose 0.08 µM) | 79.4

Reference: the supplement of paper PMC4604168 (melanoma cell lines)
